In all, about 220,000 compounds went through this assay and about 2,400 (1.1%) were called active. This list was built around the results that the source calls inconclusive (neither active nor inactive); the mix of calls is not that of the screen. Calls follow the shape of the dose curve; as a rule, active = well fitted inhibition curve with a large enough effect; inconclusive = small, poorly fitted or top-dose-only effect, or effect the other way; inactive = no such curve, though single readings can be large or run the other way. Potencies of inconclusive entries are doubtful fits and often do not repeat.
Test: qHTS Multiplex Assay to Identify Dual Action Probes in a Cell Model of Huntington: Aggregate Formation (GFP); also: nearly all actives have a fitted effect of over 60% in size
Settings: PC12 HttQ103-GFP aggregates, Acumen cytometry, 40 h; activity change, negative = inhibition: at 46.1 µM (top of the series) unless noted
Outline: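 Quantitative HTS on tebufenozide-induced (100 nM) PC12 cells stably expressing polyQ103 Huntingtin exon 1–GFP. Reduction of bright GFP aggregates, detected by laser scanning cytometry after lysis, identified actives across the titration.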
For O=C(Nc1ccc(OC(F)F)cc1)Nc1cccc(C(F)(F)F)c1, the Potency was inconclusive: 35.5 µM [inhibitor, single point].
For O=C(Cc1cccs1)Nc1cccc(-c2nc3cc4ccccc4cc3[nH]2)c1, the Potency was active: 25.1 µM.
With CCN(CC)CCN(Cc1cc2cc3c(cc2[nH]c1=O)OCCO3)C(=O)NC1CCCCC1 the “activity change, negative = inhibition” value was inactive: -4.47%.
In the case of CCOC(=O)c1ccc(Oc2cc(C)nc(Cl)n2)cc1, the activity change, negative = inhibition is reported as inactive: 0% [at 9.22 µM].
With Cc1nc(NCc2ccccn2)c2ccccc2n1 the Potency was inconclusive: 8.91 µM [inhibitor, partial curve].
With O=C(NC(=S)NNS(=O)(=O)c1ccccc1)c1ccc([N+](=O)[O-])cc1 the “activity change, negative = inhibition” value was inactive: -5.67%.
For Cc1ccc(/C(N)=N/OC(=O)N2CCOCC2)cc1, the Potency was inconclusive: 35.5 µM [inhibitor, single point].
In the case of Cc1ccc(S(=O)(=O)NCCC(c2ccc(F)cc2)c2ccco2)cc1 (centres undefined), the Potency is reported as inconclusive: 2.24 µM [inhibitor, single point].
In the case of O=C(CCCn1c(=S)[nH]c2cc3c(cc2c1=O)OCO3)N1CCN(c2ccc(Cl)cc2)CC1, the Potency is reported as inconclusive: 14.1 µM [inhibitor, single point].
With CC(C)(C)Nc1nc(Oc2ccc(=O)[nH]n2)nc(N2CCOCC2)n1 the Potency was inconclusive: 5.62 µM [inhibitor, single point].
In the case of C=CC#CC1(O)CC(C)N(C)CC1C (centres undefined), the Potency is reported as inconclusive: 14.1 µM [activator, single point].
With COc1cccc(-c2nc(-c3ccc(NC(=O)c4cccnc4)cc3)no2)c1 the Potency was inconclusive: 3.16 µM [activator, partial curve].
In the case of O=C(NC(=C(Cl)Cl)S(=O)(=O)c1ccc(Cl)cc1)c1ccccc1, the Potency is reported as inconclusive: 5.62 µM [inhibitor, single point].
For CCCc1ccc(-c2c(C)sc(NC(=O)c3ccnn3C)c2C#N)cc1, the Potency was active: 7.08 µM.
For COc1ccc(CCNC(=O)c2cc(CC(C)C)on2)cc1OC, the Potency was inconclusive: 35.5 µM [inhibitor, single point].
In the case of CCN1C(=O)c2cccc3c(S(=O)(=O)N(C(=O)c4ccncc4)c4ccc(OC)cc4)ccc1c23, the Potency is reported as inconclusive: 35.5 µM [inhibitor, single point].
With O=C(N/N=C/C1CC=CCC1)c1ccc(Cl)cc1O (centres undefined) the Potency was inconclusive: 5.62 µM [inhibitor, single point].
For Cc1cc(=O)[nH]c(N2CCN(Cc3ccccc3)CC2)n1, the Potency was inconclusive: 0.316 µM [inhibitor, full curve, poor fit].
For COc1ccc(S(=O)(=O)N(Cc2ccc(OC)c(OC)c2)Cc2ccco2)cc1, the Potency was inconclusive: 11.2 µM [inhibitor, single point].
With Cc1ncc(CO)c(/C=N/NC(=O)c2ccc(Br)cc2)c1O the Potency was active: 11.2 µM.
In the case of Cc1cccc(NC(=O)C2SC(=Nc3c(C)cccc3C)C(C(=O)N3CCOCC3)=C2N)c1 (centres undefined), the Potency is reported as inconclusive: 35.5 µM [inhibitor, single point].
For COC(=O)c1[nH]c2cc(C)ccc2c1NC(=O)CN1CCCc2ccccc21, the Potency was inconclusive: 35.5 µM [inhibitor, single point].
In the case of Nc1ncnc2nc(SCc3ccc(Cl)cc3Cl)[nH]c12, the Potency is reported as inconclusive: 35.5 µM [inhibitor, single point].
With Cc1ccccc1C(=O)c1c[nH]c(C(=O)NCc2cccs2)c1 the Potency was inconclusive: 7.08 µM [inhibitor, partial curve].
In the case of OCC1CCCCN1C(=S)Nc1ccc(Cl)cc1Cl (centres undefined), the Potency is reported as inconclusive: 3.55 µM [activator, single point].
In the case of Cc1nc2nc[nH]n2c(=O)c1CCOC(=O)c1c(F)cccc1F, the “activity change, negative = inhibition” value is reported as inactive: 2.45%.
For CC(C)c1nc2sc3c(NCc4ccco4)ncnc3c2c2c1COC(C)(C)C2, the Potency was inconclusive: 15.8 µM [inhibitor, single point].
In the case of COc1ccc(N2CCN(C(=O)Cn3nnc(-c4ccccc4N)n3)CC2)cc1, the “activity change, negative = inhibition” value is reported as inactive: -15%.
In the case of O=C1SC(SCc2ccccc2)=N/C1=C\c1ccco1, the Potency is reported as inconclusive: 8.91 µM [activator, partial curve, poor fit].
In the case of COc1ccccc1OC(C)C(=O)NNC(=S)NC1CCCC1 (centres undefined), the “activity change, negative = inhibition” value is reported as inactive: 11.9%.
In the case of CC1CCN(C(=O)COC(=O)[C@H](C)NS(=O)(=O)/C=C/c2ccccc2)CC1, the Potency is reported as inconclusive: 2.24 µM [activator, full curve, poor fit].
For CCCCOc1ccccc1Cn1c(=O)oc2ccc(C)cc21, the Potency was inconclusive: 35.5 µM [inhibitor, single point].
In the case of COc1ccc(Cn2nnnc2C(c2cc3cc(C)ccc3[nH]c2=O)N2CCOCC2)cc1 (centres undefined), the Potency is reported as inconclusive: 35.5 µM [activator, single point].
In the case of O=S(=O)(Nc1nc2ccccc2nc1Nc1cccc(S(=O)(=O)N2CCCCC2)c1)c1ccccc1, the Potency is reported as inconclusive: 4.47 µM [inhibitor, full curve].
For O=C(c1ccc(F)cc1)N1CCN(c2ccc([N+](=O)[O-])c(N3CCCCC3)c2)CC1, the “activity change, negative = inhibition” value was inactive: -0.8%.
In the case of O=C(Oc1cccc2cccnc12)c1cccc(N2C(=O)C3C4CCC(C4)C3C2=O)c1 (centres undefined), the Potency is reported as inconclusive: 35.5 µM [inhibitor, single point].
For Nc1nc(-c2ccccc2)cc(-c2ccccc2O)n1, the “activity change, negative = inhibition” value was inactive: 28.9%.
For CC1=CC(C)(C)Nc2ccc(OC(=O)CN3C(=O)c4cccc5cccc(c45)C3=O)cc21, the Potency was inconclusive: 5.62 µM [activator, single point].
With Nc1ccc2nc[nH]c2c1 the “activity change, negative = inhibition” value was inactive: -2.09%.
With CCC(C)c1ccccc1NC(=O)COC(=O)CCc1cc(OC)c(OC)c(OC)c1 (centres undefined) the “activity change, negative = inhibition” value was inactive: -11.9%.
In the case of Cc1ccc(Nc2cc(=O)n(C3CCCCC3)c(=O)[nH]2)cc1C, the Potency is reported as inconclusive: 35.5 µM [inhibitor, single point].
With CC(C)NC(=O)Cn1nnc(-c2ccc(Cl)cc2)n1 the Potency was active: 12.6 µM.
In the case of Cc1cc(O)c(NC(=S)NC(=O)c2ccc(-c3ccc(Cl)cc3)o2)cc1C, the Potency is reported as inconclusive: 7.08 µM [inhibitor, partial curve].
For Fc1ccccc1N1CCN(c2ncnc3[nH]ncc23)CC1, the Potency was inconclusive: 15.8 µM [inhibitor, single point].
For Cc1cc(C(=O)OCc2nnc(-c3ccccc3)o2)c(C)n1-c1ccccc1, the Potency was active: 11.2 µM.
In the case of CCc1ccc(CCC(=O)Nc2nnc(C)s2)o1, the Potency is reported as inconclusive: 3.16 µM [inhibitor, single point].
In the case of CSc1cccc(-n2cc(-c3ccc4c(c3)OCO4)[nH]c2=O)c1, the Potency is reported as inconclusive: 35.5 µM [activator, single point].
In the case of CCOCCCNC(=O)c1ccccc1Br, the Potency is reported as inconclusive: 5.62 µM [activator, single point].
In the case of C/C(N)=C(/C#N)C(=O)COC(=O)CSc1ccc2ccccc2c1, the activity change, negative = inhibition is reported as inactive: -7.83% [at 9.22 µM].
For CCCNC(=O)c1ccc2c(c1)C1C3CCC(C3)C1C(c1ccccc1)N2 (centres undefined), the Potency was inconclusive: 14.1 µM [inhibitor, partial curve].
In the case of Cc1cccc2nc(-c3ccccc3)nc(N3CCC(O)(c4ccc(Cl)cc4)CC3)c12, the “activity change, negative = inhibition” value is reported as inactive: 7.04%.
For O=C(CSc1nc2[nH]ncc2c(=O)n1-c1ccccc1Br)NCc1ccccc1Cl, the “activity change, negative = inhibition” value was inactive: -19%.
In the case of CCCCN1C(=O)Cc2c1nc(N)c1c(N)nc(N(CCC)CCC)c(C#N)c21, the Potency is reported as inconclusive: 15.8 µM [inhibitor, single point].
For NS(=O)(=O)c1ccc(NC(=O)COC(=O)c2cccc(S(=O)(=O)N3CCCC3)c2)cc1, the activity change, negative = inhibition was inactive: 8.11% [at 9.22 µM].
With CCOC(=O)c1c(C)sc2c1N(C(=O)CCl)c1cc(Cl)ccc1S2 the Potency was inconclusive: 11.2 µM [inhibitor, single point].
With Cc1ccc(NC(=O)CSc2ncn[nH]2)cc1S(=O)(=O)N1CCOCC1 the Potency was inconclusive: 6.31 µM [activator, single point].
In the case of COc1ccc(-n2nnnc2SCC(=O)N2C(C)CCCC2C)c(OC)c1 (centres undefined), the Potency is reported as inconclusive: 3.16 µM [activator, single point].
With Cc1cc(C)cc(NC(=O)/C=C/c2ccc([N+](=O)[O-])s2)c1 the Potency was inconclusive: 1.78 µM [activator, full curve].
With O=C1CC(c2ccc(Br)cc2)NC(c2ccc(Br)cc2)C1c1ccccc1 (centres undefined) the “activity change, negative = inhibition” value was inactive: -22.2%.
With CCN(CC)c1ccc(-c2nn3c(-c4ccccc4OC)nnc3s2)cc1 the Potency was inconclusive: 35.5 µM [inhibitor, single point].
With CCOC(=O)CSc1nnc(-c2cccs2)n1-c1ccccc1 the “activity change, negative = inhibition” value was inactive: 2.91%.
For COc1ccc(Cl)cc1C(=O)CSc1nnnn1C1CCCC1, the “activity change, negative = inhibition” value was inactive: -3.32%.
With CCCCC(CC)CNC(=O)c1[nH]c(C)c(C(C)=O)c1C (centres undefined) the Potency was inconclusive: 11.2 µM [inhibitor, partial curve].
For O=C(Nc1ccccc1)Nc1ccc(Br)c(Cl)c1, the Potency was inconclusive: 35.5 µM [inhibitor, single point].
In the case of CC(NC(=O)COC(=O)c1ccc2c(c1)S(=O)(=O)N=C1CCCCCN12)C12CC3CC(CC(C3)C1)C2 (centres undefined), the Potency is reported as inconclusive: 1.26 µM [inhibitor, single point].
With Cc1cc(OCC(=O)N2CCc3ccccc3C2)c2c(-c3ccccc3)cc(=O)oc2c1 the Potency was inconclusive: 0.562 µM [inhibitor, full curve, poor fit].
With COC(=O)c1ccc(NC(=O)CSCc2ccccc2)cc1 the Potency was inconclusive: 2.24 µM [activator, single point].
For Cc1nc(-c2ccccc2)sc1-c1nc(-c2cccnc2)ncc1S(=O)(=O)c1ccccc1, the Potency was inconclusive: 15.8 µM [inhibitor, single point].
For CCn1c(CSc2nncn2-c2ccc(OC)cc2)nc2cc(S(=O)(=O)N(C)C)ccc21, the Potency was inconclusive: 8.91 µM [activator, partial curve].

Reference: PubChem BioAssay AID1688 (National Center for Advancing Translational Sciences (NCATS), 2009)
% is scaled to controls: 0 for no effect and ±100 for the full control effect; potency is read from the fitted curve at half-maximal effect.
